Results are given in words; binding and its absence hold for the method and conditions named. In cells and extracts the contact can be indirect. Some binding calls cover weakened binding; strength is not graded here. Tags and fused reporters may be left off the sequences shown.

The values that follow come from paper PMC11000164.

The assay addresses T1, Cnd2-3C-ProtA2 (fission yeast condensin subunit Cnd2 with a 3C-cleavable protein A tag) (Schizosaccharomyces pombe) (UniProt Q9Y7R3).
T1 sequence: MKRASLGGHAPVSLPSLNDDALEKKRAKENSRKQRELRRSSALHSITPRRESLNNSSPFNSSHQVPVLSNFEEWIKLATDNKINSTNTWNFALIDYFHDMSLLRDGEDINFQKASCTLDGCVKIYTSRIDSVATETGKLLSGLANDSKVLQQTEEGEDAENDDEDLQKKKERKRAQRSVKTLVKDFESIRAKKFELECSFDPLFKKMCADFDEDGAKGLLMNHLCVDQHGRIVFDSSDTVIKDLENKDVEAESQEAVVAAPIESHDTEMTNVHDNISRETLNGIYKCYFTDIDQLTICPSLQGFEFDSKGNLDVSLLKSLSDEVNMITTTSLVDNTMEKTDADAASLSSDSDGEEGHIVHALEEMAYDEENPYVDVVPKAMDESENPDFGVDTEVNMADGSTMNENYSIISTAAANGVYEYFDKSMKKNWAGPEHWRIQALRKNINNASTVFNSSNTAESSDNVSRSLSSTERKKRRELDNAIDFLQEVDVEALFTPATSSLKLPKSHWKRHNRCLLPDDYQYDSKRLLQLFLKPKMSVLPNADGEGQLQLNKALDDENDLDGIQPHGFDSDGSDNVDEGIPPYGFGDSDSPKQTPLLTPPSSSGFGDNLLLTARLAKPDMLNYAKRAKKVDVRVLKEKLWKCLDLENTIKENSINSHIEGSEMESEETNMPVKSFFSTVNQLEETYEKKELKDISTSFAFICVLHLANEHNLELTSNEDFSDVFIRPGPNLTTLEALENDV
The assay can be described thus: pull-down; IgG pull-down: cleared lysate of budding yeast co-overexpressing the five subunits, rabbit IgG agarose beads capture Cnd2-ProtA2, 4°C 1 h; washes in 40 mM Tris-HCl pH 7.5, 300 mM NaCl, 10% glycerol, 2 mM DTT; bead-bound protein on SDS-PAGE, Coomassie staining.

B1: Cut3 (fission yeast condensin subunit) (protein, UniProt P41004 1-1324)
chain: MSDKGIFRTSSTPSIVDVTPDRGERPRKLVRSVLESPSQKDVASIVKIEQTPSRPFFNDFLKKRITDSLNERPNLLNKFMSAQDGTPSKSTGFNERSSQLVSEFTTTEDIENCEETTQVLPPRLVVYELRLTNFKSYAGTQIVGPFHPSFSSIVGPNGSGKSNVIDALLFVFGFRASKLRQSKASALIHKSATHPSLDSCDVEITFKEVNSDFTYVDGSELTVRRTAYKNNTSKYFVNGVESSFSAVSNLLKEKGIDLNHKRFLILQGEVESIAQMKPRAISEGDDGLLEYLEDIIGTSKYKPIIEENMQELSNSDDICAEKESRLKLVLSEKAKLEDSKNSVLSFLKDENELFMKQNQLYRTILYETRNKKTLVQNLLNSLEGKLQAHLEKFEQTERDISEKNEEVKSLREKAAKVKNDCTSEKKTRQSYEQQTVKIEEQLKFLLNKEKKLKKSIEALSFEKSEAENSLSSHDIDSQKLNSEIADLSLRLQQEELSLDDIRKSLQGKTEGISNAIEEKQKAMAPALEKINQLTSEKQILQVELDMLLNKENDLINDVESSQSSLDKLRNDAEENRNILSSKLKVLSDLKGEKKDVSKNIERKKETVHNTYRNLMSNRTKLEEMKASLSSSRSRGNVLESLQRLHESDNLNGFFGRLGDLATIDEAYDVAISTACPALNHIVVDNIETGQKCVAFLRSNNLGRASFIILKELAQKNLARIQTPENVPRLFDLLRFNDQKFAPAFYNVLQNTLVAKNLEQANRIAYGKTRWRVVTLSGQLIDKSGTMTGGGTRVKKGGMSSAITSDVSPASVETCDKQVQLEDTRYRQHLSELESLNQRFTEISERIPSAELEISKLQLDVSACDRLVAGEERRILQLKSDLKSIRNNNERKRNLQNKISNMDKEVEAININNEGLVTEIKTLQDKIMEIGGIRYRIQKSKVDDLHEQLKFVKDKLNKMSFKKKKNEQRSQSFQVELSNLTSEYDTTTESIATLKTELQSLNKYVDEHKSRLREFENALWDINSSIDELVKFIEFESKQMNSVKAERIELENQIQEQRTALSEVGNNENKYLKLMSNLKLHNLTEFCDQTTMDSTFPEYSEDELSSVDKSELVSNISVLKKKTEDREVDINVLSEYRRCNKEAEKRDSDYQSELQKRTDLKKVVTDLQSQRLDEFMYGFGIISMKLKEMYQIITMGGNAELELVDSLDPFSEGVLFSVMPPKKSWKNISNLSGGEKTLSSLALVFALHNYKPTPLYVMDEIDAALDFKNVSIVANYIKERTKNAQFIVISLRSNMFELSSRLVGIYKTANMTKSVTINNKEILTD
For the molecule B1, the binding entry is recorded as “binds”.

B2: Cnd3 (fission yeast condensin subunit) (protein, UniProt Q10429 1-875)
chain: MSCIQIISSSQTSIAGHRKLCNKLFTLRTQEGFETDILRALNIILTVKKGNSNADRVLRFLVTFVNYLQQKDPEIDIVQPILKHILRGLDAKDKTVRYRCCQIIARVVNCVKEIDDDLYNTLKEKLLSRVLDRESIVRLEAVVALSRLQEDTGDEENDVRNILLFLLQNDPSSEVRRSVLLNIEVSNSTLPFILERARDVDAANRKCVYARVLPKIGDFRYLSIKKRVRILKWGLNDRDESVEKAAADMLAYQWIENADNNLLELLERLDVSNNSDVAVLAIKKFFDVRVDSLSQLEFPEQFWLELTAESSLLARTFNEICIEKNYTDLLDKMPEVVQLTYYIERQYVSLRDKSSYDESCFIIEQLLYIGLSQDMVDEIGRRKLLKSLTNSLSTMALPDSLISLHIELLRKLCSSENDFCSLLVEIITEVFEQGHSQNQTEEQGNSNAPELNKNDYEGEEITVSQKSPSPSLPPNELNEPEPDDMDGYKEAFNELRCLSYVQCLFENITSSLNENLYMVDMLKTLIIPAVRSHDLPIREKGLECLSLVCLLNADLAFENVPLYLHCYEKGSVVLKCTAIRTLTDMLIQHGKAKFTEYEDAISSILFEALGEFENAELQTLGAEAIAKLLVILHYRDELFLKPLIIQYFEPNTVDNHALRQVLGYFFPVYAFGAHENQWRIATIFCDALLSLLEIYRDLDEDDVQLSIGHIAQQMLDWTDNEKLYERKTQTGDDYIALNHNVHLHLANMIFESLPNASEGKERKFMISLLGKLKIPTDLPSSDYQRTKRKLETYESHGFTMDSTSLSILAKFERMLLQNEEARSKFEETEEERLMENAEENEHAGAEAISGEIIPDTVEANMEDEEEVYVKQEEDL
Turning to B2, the binding result is “binds”.

B3: Cnd1 (fission yeast condensin subunit) (protein, UniProt O94679 1-1158)
chain: MSLDLLSRLKKYIHDEENSDLDSIYAECENAGLTAVVNDVIDTLLLGTSSCFDEDCLEKLFAICSHFADLSSSVRNKVYDLLTSNISSESAILEDMISANATDFTVPQTNLETTGIAFQLTVNSLSSSNQLSVIRSSTNTVKGRKKNPTTNSNWNGISHVNALLDAIITLFQKKLSRVWTTSSERDMFLSLFLKPIYTLMESEINIKNASFRSRLFNIIGLAVQFHNHTTAAETNIIQNLQYFEHLSEYAADLVHIVTVQFNSVTLAEGIIRTLCSLEFNDNDVKGPKQVALFLVRLSSLIPNLCLKQLTQLVKLLDSESYTLRCAIIEVLANVVIDQIHDEAQNEMSESVPATVQSLMDLLSERLLDISPYCRTKVLHVFIKIFDLPIKYPRKRQEIAELVIRCLQDRSSHVRRNAIKLFSKLLTTHPFSVMHNGLLTRNIWEKGLSIIEEQLNSLQPKQQEKVVDSELEVDENLLEDATMIQDDESHEGESHLENSLSEYVDSVPAEEIVKVNLTKRFYLEALQYIDIVEAGAKIISQLLFAKNKSEVIESMDFFVFCNSFGISSSKLYIKKMIHLIWVKGTSDEGNNIQNHVLSCYKTLFFEPPPNSGTNEAANYIARNLISLTYDASLAELTSLEQMLCILMKDGYFSHLVITKLWQVYSYQKKDISRTQRRGSIIVIGMLALGNTDVVMQGLDHLIQIGLGPPGLEDLVLARYTCIAIKRIGKDASGSSNINFPNSHTLCQKLCMLLLRPSFSEEWFGLEEQAIEAIYAVAKHPDELCTNIILLLTKQLFKPSNHENTTSNDDHAMDEDLDDSPEEETLKDEEEIGIRLAHLIFLVGHVAIKQLVYIEYCEAEFKRRKADAERLAVQNSNNPINGQETSEYDLITGTSEDDFSEAMTFIRERELLYGENSLLSRFAPLVVELCSNHKSHNNQSLLLAASLTLSKFMCLSNNFCMEHLPLLITILEKCDNPIIRNNLVIGLADLTVCFNHFIDEISEYLYRRLMDEESSVKKTCFMTLAFLILAGQIKVKGQLGIMARSLEDEDARISDLARMFFTDFAAKDNSVYNNFIDIFSVLSRSAEEQDEDDAKFKRIIRFLTSFIEKERHTKQLAERLAARLDRCKTQRQWDHVVYALSLLPHKADNIQKLIDDGYHE
On to B3, for which the binding result is “binds”.

B4: Cut14-Pk3 (fission yeast condensin subunit Cut14 with a Pk epitope tag) (protein, UniProt P41003 1-1172)
chain: MKIEELIIDGFKSYAVRTVISNWDDQFNAITGLNGSGKSNILDAICFVLGITNMSTVRAQNLQDLIYKRGQAGITRASVTIVFNNRDPASSPIGFENHPQVSVTRQIIMGGTSKYLINGHRALQQNVQNLFQSVQLNINNPNFLIMQGRITKVLNMKATEILSMIEEASGTRMFEERKEKAFRTMQRKEAKVEEINTLLREEIEPRLTKLRTEKKTFLEYQHIYNDLERLSHLCTAYDYYKLSLKVEELTVQASQKHSHIAEMESSLQTSKQEVLILKEKIKKIEDERMRQMSVSSDRTLDSQLQTVNENITRISTSIELKNTALEEEHGDLQQIRGKAKELETLLRGKRKRLDEVLSVYEKRKDEHQSISKDFKSQEELISSLTTGLSTTEGHETGYSRKLHEARDTLNDFKAEKETNRLKLEGLNKQISLTKPKKAEATKRCDQLNREIDILQNHVEKLKMSLKNTNSDITGEDVLQQKLKQLAKDRGNLLNELDALKSKLAYMEFTYTDPTPNFDRSKVKGLVAQLLTLNEENYDKQTALEITAGGRLYNLIVETEKIGAQLLQKGNLKRRVTIIPLNKITSFVASAERVGAAKKISNNKAQLALELIGYDDELLPAMQYVFGSTLVCDTPESAKKVTFHPSVKLKSVTLDGDVYDPSGTLTGGSVNKSAGPLLQIQKLNSLQLKLQVVTSEYEKLETQLKDLKTQNANFHRLEQEIQLKQHELTLLIEQRETDSSFRLLSDYQQYKDDVKDLKQRLPELDRLILQSDQAIKKIERDMQEWKHNKGSKMAELEKEFNQYKHKLDEFTPILEKSENDYNGVKLECEQLEGELQNHQQSLVQGESTTSLIKTEIAELELSLVNEEHNRKKLTELIEIESAKFSGLNKEIDSLSTSMKTFESEINNGELTIQKLNHEFDRLEREKSVAITAINHLEKENDWIDGQKQHFGKQGTIFDFHSQNMRQCREQLHNLKPRFASMRKAINPKVMDMIDGVEKKEAKLRSMIKTIHRDKKKIQDTVKSIDRFKRSALEKTWREVNSSFGEIFDELLPGNSAELQPPENKEFTDGLEIHVKIGSIWKDSLAELSGGQRSLVALALIMSLLKYKPAPMYILDEIDAALDLSHTQNIGRLIKTKFKGSQFIIVSLKEGMFTNANRLFHVRFMDGSSVVQAR
On to B4, for which the binding result was “binds”.
